# Source: the supplement of paper PMC10398353
# Counter-ions that a name gives are not always drawn. ± gives the standard deviation of the averaged measurements. The list shows a part of the results. Single values of this set are uncertain.
# Tested on: Salmonella enterica serovar Typhimurium ST313 D23580
# Assay: normalized bacterial growth (OD600 20 h minus 0 h, interquartile-mean normalized) (fraction of plate interquartile mean); higher = more bacterial growth (less inhibition)
# Conditions: LPM (pH 5.8, low phosphate, low Mg2+), concentration: 10 µM, temperature: 37 °C
row,SMILES,normalized bacterial growth
1,COP(=S)(OC)SCn1nnc2ccccc2c1=O,0.98
2,C=C1[C@H]2C[C@@]3([C@@H]1O)[C@@H](C[C@@H]2O)[C@]12[C@@H]4C[C@H]3[C@H]1N(CC)C[C@]4(C)CC[C@@H]2O [Napelline],0.871
3,C#C[C@]1(O)CC[C@H]2[C@@H]3CCC4=CC(=O)CC[C@]4(C)[C@H]3CC[C@@]21C [Ethisterone],0.867
4,C#C[C@]1(O)CC[C@H]2[C@@H]3CCC4=CC(=O)CC[C@]4(C)[C@H]3CC[C@@]21C,1.11
5,CC(C)[N+](C)(CCC(C(N)=O)(c1ccccc1)c1ccccc1)C(C)C,1.3
6,CC(C)=CCCC1=CC(=O)c2c(O)ccc(O)c2C1=O,1.31
7,C/C=C1/C[N+]2(C)CCC34C(=C(C=O)[C@H]1C[C@@H]32)Nc1ccccc14 (stereo partly drawn) [Fluorocurarine chloride],0.776
8,CC(C)CC(N(C)C)C1(c2ccc(Cl)cc2)CCC1 (stereo not drawn),0.475
9,C=CCN1CC[C@]23c4c5ccc(O)c4O[C@H]2/C(=N/NC(=O)c2ccccc2)CC[C@@]3(O)[C@H]1C5 [Naloxone benzoylhydrazone],1.28
10,C[C@H]1CCC[C@@H](O)CCCCCc2cc(O)cc(O)c2C(=O)O1,1.05
11,Nc1ncn[nH]1,1.17
12,COc1ccc(CN2CCNCC2)c(OC)c1OC [Trimetazidine dihydrochloride],0.82
13,"CCCN(CCC)CCc1c[nH]c2ccc(C(N)=O)cc12 [""N,N-Dipropyl-5-carboxamidotryptamine maleate""]",1.02
14,C[C@H]1CCCC(=O)CCC/C=C/c2cc(O)cc(O)c2C(=O)O1,1.09
15,CC(C)=CCCC1(C)C=Cc2c(O)c3c(c(CC=C(C)C)c2O1)OC12C(CC4CC1C(C)(C)OC2(C/C=C(/C)C(=O)O)C4O)C3=O (stereo not drawn),0.986
16,CC[C@H]1CN2CC[C@H]1C[C@@H]2[C@@H](O)c1ccnc2ccc(OC)cc12,1.02
17,c1ccc2c(N3CCNCC3)cccc2c1 [1-(1-Naphthyl)piperazine hydrochloride],1.07
18,CC(C)[C@@H]1NC(=O)[C@H](C)OC(=O)[C@@H](C(C)C)NC(=O)[C@@H](C(C)C)OC(=O)[C@H](C(C)C)NC(=O)[C@H](C)OC(=O)[C@@H](C(C)C)NC(=O)[C@@H](C(C)C)OC(=O)[C@H](C(C)C)NC(=O)[C@H](C)OC(=O)[C@@H](C(C)C)NC(=O)[C@@H](C(C)C)OC1=O,0.935
19,C=C[C@H]1CN2CC[C@H]1C[C@H]2[C@H](OC(=O)OCC)c1ccnc2ccc(OC)cc12,1.12
20,O=C(N[C@H]1CN2CCC1CC2)c1ccc(Cl)cc1,1.13
21,"O=[N+]([O-])c1ccc2nc(N3CCNCC3)ccc2c1 [""Quipazine, 6-nitro-, maleate""]",0.881
22,C[C@]12CC[C@H]3[C@@H](CCC4=CC(=O)CC[C@@H]43)[C@@H]1CC[C@@H]2O [Nandrolone],1.23
23,OC[C@@H]1[C@@H](O)[C@H](O)[C@H]2[C@@H](O)CCN21,1.05
24,Cc1cc(O)ccc1Cl,1.05
25,"CC12CCC3C(CCC4=C(O)C(=O)CCC43C)C1CCC2=O (stereo not drawn) [""4-Androsten-4-ol-3,17-dione""]",0.702
26,CCCN(CCC)c1c([N+](=O)[O-])cc(C(F)(F)F)cc1[N+](=O)[O-],1.12

row,SMILES,normalized bacterial growth
1,N[C@@H](Cn1ccc(=O)[nH]c1=O)C(=O)O [S(-)-Willardiine],1.37
2,CC(=O)O[C@H]1C[C@@H](OC(C)=O)C(C)(C)C2C[C@@H](OC(C)=O)[C@]3(C)C(CC[C@@]4(C)[C@H](c5ccoc5)C(=O)[C@H]5O[C@]543)[C@]21C (stereo partly drawn),0.774
3,CCCC(=O)O[C@@H]1[C@@H](C)[C@@]2(O)[C@@H](C=C(CO)C[C@]3(O)C(=O)C(C)=C[C@@H]23)[C@@H]2C(C)(C)[C@]12OC(=O)CCC,0.722
4,C=C(C)[C@H]1CN[C@H](C(=O)O)[C@H]1CC(=O)O,1.16 ± 0.18
5,C[C@@H]1CC[C@@]2(OC1)O[C@H]1[C@@H](O)[C@H]3[C@@H]4CC[C@H]5C[C@@H](O[C@@H]6O[C@H](CO)[C@H](O[C@@H]7O[C@H](CO)[C@@H](O)[C@H](O[C@@H]8OC[C@@H](O)[C@H](O)[C@H]8O)[C@H]7O[C@@H]7O[C@H](CO)[C@H](O)[C@H](O[C@@H]8O[C@H](CO)[C@@H](O)[C@H](O)[C@H]8O)[C@H]7O)[C@H](O)[C@H]6O)[C@H](O)C[C@]5(C)[C@H]4CC[C@]3(C)[C@H]1[C@@H]2C,1.18
6,CN1[C@@H]2CC[C@H]1C[C@@H](OC(=O)[C@H](CO)c1ccccc1)C2 [L-Hyoscyamine],1.04
7,CN1[C@@H]2CC[C@H]1C[C@@H](OC(=O)[C@H](CO)c1ccccc1)C2 [Hyoscyamine (L)],1.01
8,CN1[C@@H]2CC[C@H]1C[C@@H](OC(=O)[C@H](CO)c1ccccc1)C2,1.1 ± 0.042
9,C[C@H](N)CN1CCc2ccc(Br)cc21 [VER-3323 hemifumarate salt],0.764
10,C[C@]12CC[C@H](O)C[C@H]1CC[C@@H]1[C@@H]2CC[C@]2(C)[C@@H](c3ccc(=O)oc3)CC[C@]12O,0.918
11,ClC1=C(Cl)C2(Cl)C3C(Cl)C(Cl)CC3C1(Cl)C2(Cl)Cl (stereo not drawn),1.05
12,O=C1CN=C(c2ccccc2Cl)c2cc([N+](=O)[O-])ccc2N1,1.4
13,C[C@H]1O[C@H](O[C@H]2[C@H](O)[C@@H](O)[C@@H](O)[C@H](O)[C@@H]2O)[C@@H](N)C[C@@H]1NC(=N)C(=O)O,1.03
14,C[C@H]([C@H](O)CCC(C)(C)O)[C@H]1CC[C@@]2(O)C3=CC(=O)[C@@H]4C[C@@H](O)[C@@H](O)C[C@]4(C)[C@H]3CC[C@]12C,1.19
15,CN[C@@H]1C[C@@H](c2ccc(Cl)c(Cl)c2)c2ccccc21 [Indatraline hydrochloride],0.821
16,"O=[N+]([O-])c1cc(O)c(O)c([N+](=O)[O-])c1 [""3,5-Dinitrocatechol""]",1.12
17,O=[N+]([O-])O[C@@H]1CO[C@H]2[C@@H]1OC[C@@H]2O,0.991
18,C=CCN1C[C@H](C)N([C@H](c2ccc(C(=O)N(CC)CC)cc2)c2cccc(OC)c2)C[C@H]1C,0.779
19,CC(C)=CCOc1c2occc2cc2ccc(=O)oc12,1.34
20,CCN1C[C@]2(C)CC[C@H](OC)[C@@]34C1[C@]1(OCO[C@@]15C[C@H](OC)[C@H]1C[C@]3(O)[C@@H]5[C@H]1OC)[C@@H](OC(C)=O)[C@H]24 [Deltaline],0.787
21,CCN1C[C@]2(C)CC[C@H](OC)[C@@]34C1[C@]1(OCO[C@@]15C[C@H](OC)[C@H]1C[C@]3(O)[C@@H]5[C@H]1OC)[C@@H](OC(C)=O)[C@H]24,1.26
22,NC(=O)c1ccc(N)nc1,0.767
23,N[C@@H](Cc1ccc(N(CCCl)CCCl)cc1)C(=O)O,0.757
24,N[C@@H](Cc1ccc(N(CCCl)CCCl)cc1)C(=O)O [Melphalan],0.886
25,OC1CCCCC1N1CCC(c2ccccc2)CC1 (stereo not drawn) [()-Vesamicol hydrochloride],1.07
26,CC(Cc1ccc(OCC(=O)O)cc1)NCC(O)c1cccc(Cl)c1 (stereo not drawn),1.07

row,SMILES,normalized bacterial growth
1,CC1=CC(=O)c2c(O)cccc2C1=O,0.66
2,CC(C)N(CCC(C(N)=O)(c1ccccc1)c1ccccn1)C(C)C (stereo not drawn) [Disopyramide],1.02
3,CC(C)N(CCC(C(N)=O)(c1ccccc1)c1ccccn1)C(C)C (stereo not drawn) [Disopyramide phosphate],1.08
4,COP(N)(=O)SC (stereo not drawn),1.1
5,CC[C@@]1(O)C[C@H](O[C@H]2C[C@H](N(C)C)[C@H](O)[C@H](C)O2)c2c(cc3c(c2O)C(=O)c2c(O)cccc2C3=O)[C@H]1C(=O)OC,0.781
6,N=C(N)NN [Aminoguanidine hydrochloride],1.03
7,N=C(N)NN [Aminoguanidine hemisulfate],1.22
8,C[C@H](N)[C@H](O)c1ccc(O)c(O)c1,1.2
9,Clc1ccc(C2CC3CCC2N3)cn1 (stereo not drawn),1.12
10,COc1cccc(C2(O)CCCCC2CN(C)C)c1 (stereo not drawn),0.907
11,CC(CCc1ccccc1)NC(C)C(O)c1ccc(O)cc1 (stereo not drawn) [Nylidrin hydrochloride],1.1
12,"Cc1c(C(=O)c2cccc3ccccc23)c2cccc3c2n1[C@H](CN1CCOCC1)CO3 [""( R)-(+)-WIN 55,212-2 mesylate""]",0.952
13,Cc1cc(OC(=O)N2CCCCC2)c(C(C)C)cc1[N+](C)(C)C,1
14,C=C(C)c1cc2cc(C(C)=O)c(O)cc2o1,0.982
15,c1ccc2nc(N3CCNCC3)ccc2c1 [Quipazine dimaleate],1.5
16,c1ccc2nc(N3CCNCC3)ccc2c1,1.03
17,C[N+](C)(C)CCCCCCCCCC[N+](C)(C)C [Decamethonium dibromide],1.24
18,CC(C)OC(=O)Nc1cccc(Cl)c1,1.12
19,C[N+]1(C)[C@@H]2CC[C@H]1C[C@@H](OC(=O)C(CO)c1ccccc1)C2 (stereo partly drawn) [Atropine methyl nitrate],1.09
20,C[N+]1(C)[C@@H]2CC[C@H]1C[C@@H](OC(=O)C(CO)c1ccccc1)C2 (stereo partly drawn) [Atropine methyl bromide],1.02
21,C[N+]1(C)[C@@H]2CC[C@H]1C[C@@H](OC(=O)C(CO)c1ccccc1)C2 (stereo partly drawn) [Methylatropine nitrate],1.03
22,C/C=C1/C[C@@H](C)[C@@](C)(O)C(=O)OCC2=CCN3CC[C@@H](OC1=O)[C@@H]23,0.818
23,O=C1NCN(c2ccccc2)C12CCN(CC1COc3ccccc3O1)CC2 (stereo not drawn) [Spiroxatrine],0.957
24,CN1C[C@H](C(=O)N[C@]2(C)O[C@@]3(O)[C@@H]4CCCN4C(=O)[C@H](Cc4ccccc4)N3C2=O)C[C@@H]2c3cccc4[nH]cc(c34)C[C@H]21 [Dihydroergotamine methanesulfonate],1.37
25,CN1C[C@H](C(=O)N[C@]2(C)O[C@@]3(O)[C@@H]4CCCN4C(=O)[C@H](Cc4ccccc4)N3C2=O)C[C@@H]2c3cccc4[nH]cc(c34)C[C@H]21 [Dihydroergotamine tartrate],0.963
26,CN1C[C@H](C(=O)N[C@]2(C)O[C@@]3(O)[C@@H]4CCCN4C(=O)[C@H](Cc4ccccc4)N3C2=O)C[C@@H]2c3cccc4[nH]cc(c34)C[C@H]21,0.918

# Some of the entries above in another layout.
row | SMILES | normalized bacterial growth
2 | C=C1[C@H]2C[C@@]3([C@@H]1O)[C@@H](C[C@@H]2O)[C@]12[C@@H]4C[C@H]3[C@H]1N(CC)C[C@]4(C)CC[C@@H]2O [Napelline] | 0.871
25 | CC12CCC3C(CCC4=C(O)C(=O)CCC43C)C1CCC2=O (stereo not drawn) ["4-Androsten-4-ol-3,17-dione"] | 0.702
20 | CCN1C[C@]2(C)CC[C@H](OC)[C@@]34C1[C@]1(OCO[C@@]15C[C@H](OC)[C@H]1C[C@]3(O)[C@@H]5[C@H]1OC)[C@@H](OC(C)=O)[C@H]24 [Deltaline] | 0.787
21 | CCN1C[C@]2(C)CC[C@H](OC)[C@@]34C1[C@]1(OCO[C@@]15C[C@H](OC)[C@H]1C[C@]3(O)[C@@H]5[C@H]1OC)[C@@H](OC(C)=O)[C@H]24 | 1.26
1 | CC1=CC(=O)c2c(O)cccc2C1=O | 0.66
